The target in one assay is CRM1-HA (human) (UniProt O14980). Description: co-IP.
A further assay addresses CRM1-VN-HA (human) (UniProt O14980). Description: split reporter.

Protein sequences, listed by entry. Tags and fused reporters are not part of them.
UniProt O14980: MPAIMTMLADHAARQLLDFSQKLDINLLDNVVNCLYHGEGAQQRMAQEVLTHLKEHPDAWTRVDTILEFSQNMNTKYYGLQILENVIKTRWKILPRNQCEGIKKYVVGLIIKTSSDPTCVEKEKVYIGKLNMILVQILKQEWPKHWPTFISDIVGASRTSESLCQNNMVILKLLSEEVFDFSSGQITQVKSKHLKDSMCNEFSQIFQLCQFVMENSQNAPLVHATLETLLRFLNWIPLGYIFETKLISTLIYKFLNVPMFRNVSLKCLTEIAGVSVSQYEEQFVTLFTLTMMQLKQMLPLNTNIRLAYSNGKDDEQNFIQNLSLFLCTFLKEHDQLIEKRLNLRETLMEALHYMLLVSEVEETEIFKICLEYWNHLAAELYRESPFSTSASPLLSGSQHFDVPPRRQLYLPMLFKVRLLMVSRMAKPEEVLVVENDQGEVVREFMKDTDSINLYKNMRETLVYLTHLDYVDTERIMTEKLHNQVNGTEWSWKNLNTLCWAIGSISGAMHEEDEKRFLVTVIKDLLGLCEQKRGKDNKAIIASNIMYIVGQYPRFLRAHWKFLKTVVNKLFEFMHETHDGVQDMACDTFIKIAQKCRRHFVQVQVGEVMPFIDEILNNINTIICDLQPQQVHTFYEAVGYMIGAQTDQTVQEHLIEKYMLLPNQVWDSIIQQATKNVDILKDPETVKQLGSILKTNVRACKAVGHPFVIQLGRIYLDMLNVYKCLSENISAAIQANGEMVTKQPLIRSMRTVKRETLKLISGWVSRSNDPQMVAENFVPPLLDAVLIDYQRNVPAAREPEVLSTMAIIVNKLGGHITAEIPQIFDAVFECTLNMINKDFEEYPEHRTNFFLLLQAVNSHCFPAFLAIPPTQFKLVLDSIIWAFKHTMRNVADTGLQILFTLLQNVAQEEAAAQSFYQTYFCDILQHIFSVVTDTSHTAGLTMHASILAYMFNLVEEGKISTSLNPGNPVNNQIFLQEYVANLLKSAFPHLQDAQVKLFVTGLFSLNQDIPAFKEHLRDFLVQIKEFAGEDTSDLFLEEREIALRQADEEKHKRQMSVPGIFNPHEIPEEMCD
UniProt P39687: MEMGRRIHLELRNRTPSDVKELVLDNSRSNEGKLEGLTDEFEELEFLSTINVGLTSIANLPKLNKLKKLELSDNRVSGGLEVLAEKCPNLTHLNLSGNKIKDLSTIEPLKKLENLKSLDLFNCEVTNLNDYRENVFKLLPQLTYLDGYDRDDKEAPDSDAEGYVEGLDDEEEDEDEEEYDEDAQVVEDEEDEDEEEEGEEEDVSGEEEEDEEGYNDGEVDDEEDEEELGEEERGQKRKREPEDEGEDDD
UniProt Q92688: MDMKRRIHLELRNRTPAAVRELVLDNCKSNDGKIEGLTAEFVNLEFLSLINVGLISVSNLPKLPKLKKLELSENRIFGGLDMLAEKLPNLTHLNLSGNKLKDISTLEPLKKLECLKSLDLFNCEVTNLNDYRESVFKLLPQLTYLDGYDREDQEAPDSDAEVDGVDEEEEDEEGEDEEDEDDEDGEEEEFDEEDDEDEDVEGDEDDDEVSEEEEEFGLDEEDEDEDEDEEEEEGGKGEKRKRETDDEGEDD

These are yes or no findings as the source states them, for the method shown. Binding seen in cells or lysates may run through a third protein. Some entries that bind do so weakly or less than the wild type.

Regarding ANP32A-Flag (from UniProt P39687 1-249), the binding entry with CRM1-HA (human) is “binds”. For the substance “ANP32A-VC-FLAG (from UniProt P39687 1-249)”, in the assay with CRM1-VN-HA (human), the binding result was “binds”. For the substance ANP32B-Flag (from UniProt Q92688 1-251), the binding entry in the assay with CRM1-HA (human) is given as “binds”.

(Values after doi:10.1101/559096.)
